From PubChem BioAssay record AID504749 (NCATS, 2011).

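A panel of P. falciparum strains inside erythrocytes is exposed to compounds for three days, then a DNA-binding dye reports the amount of parasite DNA.
Each compound was titrated across a series from about 0.000037 to 29 µM.
The number is the fitted AC50, the concentration giving a half-maximal change in signal; a lower value means higher potency, whether the curve shows a decrease or an increase.
Calls follow the curve class and fit quality: every row here is inconclusive, covering signal-raising curves and weak, poorly fitted, partial or highest-dose-only inhibition curves.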

Values are in µM.
Every entry below has the call inconclusive.
Only part of the assay is shown, chiefly results filed as inconclusive.
Potencies fitted to partial, single-point or poorly fitting curves are rough.

Compound	condition	potency (µM)	curve as filed
CCc1nc(N)nc(N)c1-c1ccc(Cl)cc1	CP329	13.46	inhibitor, single point
CCc1nc(N)nc(N)c1-c1ccc(Cl)cc1	CP191	10	inhibitor, single point
CCc1nc(N)nc(N)c1-c1ccc(Cl)cc1	CP215	5.358	inhibitor, partial curve
CCc1nc(N)nc(N)c1-c1ccc(Cl)cc1	CP217	15.85	inhibitor, single point
CCc1nc(N)nc(N)c1-c1ccc(Cl)cc1	PC26	8.492	inhibitor, partial curve, poor fit
CCc1nc(N)nc(N)c1-c1ccc(Cl)cc1	DIV30	3.381	inhibitor, partial curve, poor fit
CCc1nc(N)nc(N)c1-c1ccc(Cl)cc1	CP297	21.33	inhibitor, single point
CCc1nc(N)nc(N)c1-c1ccc(Cl)cc1	W2	15.1	inhibitor, single point
CCc1nc(N)nc(N)c1-c1ccc(Cl)cc1	CP237	10	inhibitor, single point
CCc1nc(N)nc(N)c1-c1ccc(Cl)cc1	DIV14	5.358	inhibitor, partial curve
CCc1nc(N)nc(N)c1-c1ccc(Cl)cc1	CP252	17.78	inhibitor, single point
O=C(NC(=O)c1c(F)cccc1F)Nc1cc(Cl)c(OC(F)(F)C(F)C(F)(F)F)cc1Cl (configuration not stated)	CP335	19.01	inhibitor, single point
O=C(NC(=O)c1c(F)cccc1F)Nc1cc(Cl)c(OC(F)(F)C(F)C(F)(F)F)cc1Cl (configuration not stated)	CP247	8.912	inhibitor, partial curve
O=C(NC(=O)c1c(F)cccc1F)Nc1cc(Cl)c(OC(F)(F)C(F)C(F)(F)F)cc1Cl (configuration not stated)	Dd2	11.22	inhibitor, single point
O=C(NC(=O)c1c(F)cccc1F)Nc1cc(Cl)c(OC(F)(F)C(F)C(F)(F)F)cc1Cl (configuration not stated)	ECU	17.78	inhibitor, single point
O=C(NC(=O)c1c(F)cccc1F)Nc1cc(Cl)c(OC(F)(F)C(F)C(F)(F)F)cc1Cl (configuration not stated)	PAD	17.78	inhibitor, single point
O=C(NC(=O)c1c(F)cccc1F)Nc1cc(Cl)c(OC(F)(F)C(F)C(F)(F)F)cc1Cl (configuration not stated)	ATS95	11.22	inhibitor, single point
O=C(NC(=O)c1c(F)cccc1F)Nc1cc(Cl)c(OC(F)(F)C(F)C(F)(F)F)cc1Cl (configuration not stated)	ATS189	10	inhibitor, single point
O=C(NC(=O)c1c(F)cccc1F)Nc1cc(Cl)c(OC(F)(F)C(F)C(F)(F)F)cc1Cl (configuration not stated)	CP286	15.85	inhibitor, single point
O=C(NC(=O)c1c(F)cccc1F)Nc1cc(Cl)c(OC(F)(F)C(F)C(F)(F)F)cc1Cl (configuration not stated)	3D7	17.78	inhibitor, single point
O=C(NC(=O)c1c(F)cccc1F)Nc1cc(Cl)c(OC(F)(F)C(F)C(F)(F)F)cc1Cl (configuration not stated)	HB3	12.59	inhibitor, single point
O=C(NC(=O)c1c(F)cccc1F)Nc1cc(Cl)c(OC(F)(F)C(F)C(F)(F)F)cc1Cl (configuration not stated)	AA1029	12.59	inhibitor, single point
O=C(NC(=O)c1c(F)cccc1F)Nc1cc(Cl)c(OC(F)(F)C(F)C(F)(F)F)cc1Cl (configuration not stated)	N140	11.22	inhibitor, single point
O=C(NC(=O)c1c(F)cccc1F)Nc1cc(Cl)c(OC(F)(F)C(F)C(F)(F)F)cc1Cl (configuration not stated)	ICS	17.78	inhibitor, single point
O=C(NC(=O)c1c(F)cccc1F)Nc1cc(Cl)c(OC(F)(F)C(F)C(F)(F)F)cc1Cl (configuration not stated)	CP191	12.59	inhibitor, single point
O=C(NC(=O)c1c(F)cccc1F)Nc1cc(Cl)c(OC(F)(F)C(F)C(F)(F)F)cc1Cl (configuration not stated)	7G8	8.912	inhibitor, partial curve, poor fit
O=C(NC(=O)c1c(F)cccc1F)Nc1cc(Cl)c(OC(F)(F)C(F)C(F)(F)F)cc1Cl (configuration not stated)	CP250	11.22	inhibitor, single point
O=C(NC(=O)c1c(F)cccc1F)Nc1cc(Cl)c(OC(F)(F)C(F)C(F)(F)F)cc1Cl (configuration not stated)	CP238	8.912	inhibitor, single point
O=C(NC(=O)c1c(F)cccc1F)Nc1cc(Cl)c(OC(F)(F)C(F)C(F)(F)F)cc1Cl (configuration not stated)	CP252	17.78	inhibitor, single point
O=C(NC(=O)c1c(F)cccc1F)Nc1cc(Cl)c(OC(F)(F)C(F)C(F)(F)F)cc1Cl (configuration not stated)	C2A	11.22	inhibitor, single point
O=C(NC(=O)c1c(F)cccc1F)Nc1cc(Cl)c(OC(F)(F)C(F)C(F)(F)F)cc1Cl (configuration not stated)	CP237	8.912	inhibitor, single point
O=C(NC(=O)c1c(F)cccc1F)Nc1cc(Cl)c(OC(F)(F)C(F)C(F)(F)F)cc1Cl (configuration not stated)	CP217	10	inhibitor, single point
O=C(NC(=O)c1c(F)cccc1F)Nc1cc(Cl)c(OC(F)(F)C(F)C(F)(F)F)cc1Cl (configuration not stated)	DFO2036	11.22	inhibitor, single point
O=C(NC(=O)c1c(F)cccc1F)Nc1cc(Cl)c(OC(F)(F)C(F)C(F)(F)F)cc1Cl (configuration not stated)	CP185	17.78	inhibitor, single point
O=C(CCN1CCN(CCO)CC1)N1c2ccccc2Sc2ccc(C(F)(F)F)cc21	CP325	6.746	inhibitor, partial curve, poor fit
O=C(CCN1CCN(CCO)CC1)N1c2ccccc2Sc2ccc(C(F)(F)F)cc21	CP247	5.623	inhibitor, partial curve, poor fit
O=C(CCN1CCN(CCO)CC1)N1c2ccccc2Sc2ccc(C(F)(F)F)cc21	CP266	1.51	inhibitor, single point
O=C(CCN1CCN(CCO)CC1)N1c2ccccc2Sc2ccc(C(F)(F)F)cc21	CP211	16.94	inhibitor, single point
O=C(CCN1CCN(CCO)CC1)N1c2ccccc2Sc2ccc(C(F)(F)F)cc21	C2A	17.78	inhibitor, single point
O=C(CCN1CCN(CCO)CC1)N1c2ccccc2Sc2ccc(C(F)(F)F)cc21	CP262	19.01	inhibitor, single point
O=C(CCN1CCN(CCO)CC1)N1c2ccccc2Sc2ccc(C(F)(F)F)cc21	PC15	10	inhibitor, partial curve, poor fit
O=C(CCN1CCN(CCO)CC1)N1c2ccccc2Sc2ccc(C(F)(F)F)cc21	GB4	15.1	inhibitor, single point
O=C(CCN1CCN(CCO)CC1)N1c2ccccc2Sc2ccc(C(F)(F)F)cc21	CP291	10.69	inhibitor, partial curve, poor fit
O=C(CCN1CCN(CCO)CC1)N1c2ccccc2Sc2ccc(C(F)(F)F)cc21	HB3	11.22	inhibitor, single point
O=C(CCN1CCN(CCO)CC1)N1c2ccccc2Sc2ccc(C(F)(F)F)cc21	ECU	14.13	inhibitor, single point
O=C(CCN1CCN(CCO)CC1)N1c2ccccc2Sc2ccc(C(F)(F)F)cc21	CP185	8.912	inhibitor, partial curve, poor fit
O=C(CCN1CCN(CCO)CC1)N1c2ccccc2Sc2ccc(C(F)(F)F)cc21	TAB109	12.59	inhibitor, single point
O=C(CCN1CCN(CCO)CC1)N1c2ccccc2Sc2ccc(C(F)(F)F)cc21	CP335	9.528	inhibitor, partial curve
O=C(CCN1CCN(CCO)CC1)N1c2ccccc2Sc2ccc(C(F)(F)F)cc21	CP269	19.01	inhibitor, single point

Some entries from above, unchanged:

| Compound | condition | potency (µM) | curve as filed |
|---|---|---|---|
| `CCc1nc(N)nc(N)c1-c1ccc(Cl)cc1` | W2 | 15.1 | inhibitor, single point |
| `CCc1nc(N)nc(N)c1-c1ccc(Cl)cc1` | CP215 | 5.358 | inhibitor, partial curve |
| `CCc1nc(N)nc(N)c1-c1ccc(Cl)cc1` | CP237 | 10 | inhibitor, single point |
| `O=C(CCN1CCN(CCO)CC1)N1c2ccccc2Sc2ccc(C(F)(F)F)cc21` | C2A | 17.78 | inhibitor, single point |
| `O=C(NC(=O)c1c(F)cccc1F)Nc1cc(Cl)c(OC(F)(F)C(F)C(F)(F)F)cc1Cl` (configuration not stated) | 3D7 | 17.78 | inhibitor, single point |